## Library screen at single concentrations

Chains of the proteins cited; added tags and fusions are not shown. Residues count along the entry.
UniProt I6X8D2, whole entry: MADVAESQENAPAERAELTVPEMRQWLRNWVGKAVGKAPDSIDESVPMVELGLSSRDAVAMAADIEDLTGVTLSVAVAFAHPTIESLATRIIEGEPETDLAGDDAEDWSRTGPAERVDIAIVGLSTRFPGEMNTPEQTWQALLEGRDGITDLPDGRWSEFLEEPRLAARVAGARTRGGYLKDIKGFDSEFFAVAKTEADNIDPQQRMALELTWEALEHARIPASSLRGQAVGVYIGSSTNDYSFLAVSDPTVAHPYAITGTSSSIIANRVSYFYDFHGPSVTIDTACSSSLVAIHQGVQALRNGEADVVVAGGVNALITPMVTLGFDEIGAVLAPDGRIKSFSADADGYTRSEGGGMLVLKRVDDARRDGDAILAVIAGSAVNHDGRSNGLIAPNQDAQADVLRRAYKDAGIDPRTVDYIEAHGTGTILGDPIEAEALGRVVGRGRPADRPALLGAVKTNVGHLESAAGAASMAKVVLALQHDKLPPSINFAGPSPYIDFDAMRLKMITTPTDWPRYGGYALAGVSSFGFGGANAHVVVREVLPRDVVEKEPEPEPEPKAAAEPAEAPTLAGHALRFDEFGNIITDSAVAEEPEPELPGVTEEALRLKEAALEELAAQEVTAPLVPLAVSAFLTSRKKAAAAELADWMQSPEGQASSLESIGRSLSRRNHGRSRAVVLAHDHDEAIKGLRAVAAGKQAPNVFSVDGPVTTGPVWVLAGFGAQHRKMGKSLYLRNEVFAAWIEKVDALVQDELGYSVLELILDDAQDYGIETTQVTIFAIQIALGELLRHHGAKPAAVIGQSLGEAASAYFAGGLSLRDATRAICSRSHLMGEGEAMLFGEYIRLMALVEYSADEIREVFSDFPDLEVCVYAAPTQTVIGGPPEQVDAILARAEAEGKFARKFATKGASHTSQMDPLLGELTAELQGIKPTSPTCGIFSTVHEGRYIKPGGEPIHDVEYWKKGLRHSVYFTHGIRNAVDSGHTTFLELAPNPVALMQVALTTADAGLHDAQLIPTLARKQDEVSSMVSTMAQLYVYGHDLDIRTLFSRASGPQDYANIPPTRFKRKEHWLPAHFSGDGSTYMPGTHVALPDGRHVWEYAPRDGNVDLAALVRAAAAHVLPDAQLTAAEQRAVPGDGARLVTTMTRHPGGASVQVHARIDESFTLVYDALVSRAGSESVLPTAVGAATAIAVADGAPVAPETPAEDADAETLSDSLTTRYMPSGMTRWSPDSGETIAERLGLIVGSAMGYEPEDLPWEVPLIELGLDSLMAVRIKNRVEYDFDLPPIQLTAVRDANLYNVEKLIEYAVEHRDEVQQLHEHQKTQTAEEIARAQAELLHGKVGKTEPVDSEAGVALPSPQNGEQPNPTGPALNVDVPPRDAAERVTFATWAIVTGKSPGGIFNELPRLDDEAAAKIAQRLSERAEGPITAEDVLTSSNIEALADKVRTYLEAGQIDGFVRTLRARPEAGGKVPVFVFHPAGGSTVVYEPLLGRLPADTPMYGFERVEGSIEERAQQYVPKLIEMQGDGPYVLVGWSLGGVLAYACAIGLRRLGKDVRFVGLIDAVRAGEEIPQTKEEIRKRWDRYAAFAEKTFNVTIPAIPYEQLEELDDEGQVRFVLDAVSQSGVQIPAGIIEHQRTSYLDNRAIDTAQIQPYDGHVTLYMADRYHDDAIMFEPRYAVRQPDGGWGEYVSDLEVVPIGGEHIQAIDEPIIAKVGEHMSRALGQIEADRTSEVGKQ
UniProt Q8IDJ8, 1-583: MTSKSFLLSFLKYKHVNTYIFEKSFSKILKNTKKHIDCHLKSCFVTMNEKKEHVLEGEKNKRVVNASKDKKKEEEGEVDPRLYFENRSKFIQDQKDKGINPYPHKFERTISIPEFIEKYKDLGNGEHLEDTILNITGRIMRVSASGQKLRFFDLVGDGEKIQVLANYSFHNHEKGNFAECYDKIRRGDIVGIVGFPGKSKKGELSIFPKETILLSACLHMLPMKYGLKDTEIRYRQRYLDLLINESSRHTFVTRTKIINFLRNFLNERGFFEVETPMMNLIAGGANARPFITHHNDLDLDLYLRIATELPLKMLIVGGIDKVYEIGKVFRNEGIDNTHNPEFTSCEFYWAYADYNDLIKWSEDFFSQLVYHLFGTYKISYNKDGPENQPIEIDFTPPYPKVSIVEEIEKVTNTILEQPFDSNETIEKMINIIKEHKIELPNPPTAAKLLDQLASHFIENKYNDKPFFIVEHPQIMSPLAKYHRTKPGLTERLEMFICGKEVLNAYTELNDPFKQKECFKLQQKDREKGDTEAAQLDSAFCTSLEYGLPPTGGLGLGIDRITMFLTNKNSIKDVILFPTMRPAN
UniProt P9WNZ1, whole entry: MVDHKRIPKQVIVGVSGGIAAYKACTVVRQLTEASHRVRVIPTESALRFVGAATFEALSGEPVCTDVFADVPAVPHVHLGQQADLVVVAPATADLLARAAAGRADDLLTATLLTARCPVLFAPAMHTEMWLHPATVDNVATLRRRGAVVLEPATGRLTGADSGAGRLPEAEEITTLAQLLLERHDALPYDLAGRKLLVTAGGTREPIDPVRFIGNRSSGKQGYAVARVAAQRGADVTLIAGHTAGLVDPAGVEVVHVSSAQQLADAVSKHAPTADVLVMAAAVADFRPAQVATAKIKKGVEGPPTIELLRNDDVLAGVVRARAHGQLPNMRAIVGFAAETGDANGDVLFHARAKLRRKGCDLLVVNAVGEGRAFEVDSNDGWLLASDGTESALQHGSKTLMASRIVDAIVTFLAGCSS

The values are deposited in ChEMBL (CHEMBL3988442, “University of Dundee, Small-Polar-MMV Screening Library” (2021)).

Toxoplasma: 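Assay of Toxoplasma gondii numbers, read through their beta-galactosidase reporter with a colour substrate. Tested at 10 µM. Higher reads as fewer parasites (inferred from which compounds were picked for retests). Size under these conditions: about 67,000 compounds, about 260 of them at 50% or above in at least one test.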
Pks13 thioesterase: 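Enzyme assay of the thioesterase domain of polyketide synthase 13; the read-out is not stated. Target: Polyketide synthase Pks13, Mycobacterium tuberculosis (UniProt I6X8D2). Compounds at 30 µM. The record gives no direction; the compounds picked for IC50 retests had high values, so higher reads as stronger inhibition. Size under these conditions: about 67,000 compounds, about 300 of them at 50% or above in at least one test.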
PfKRS1: 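Lysine-tRNA ligase, Plasmodium falciparum 3D7 (UniProt Q8IDJ8). Enzyme assay of the cytosolic lysyl-tRNA synthetase in 384-well plates, read by luminescence. Concentration: 30 µM. Higher reads as stronger inhibition, judged from the few compounds that gave an IC50. Of about 69,000 compounds tested this way, about 49 (0.071%) reached 50% or more in at least one test.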
CoaBC: 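Enzyme assay of CoaBC with a phosphate dye (Biomol Green) read at 650 nm. Target: Coenzyme A biosynthesis protein CoaBC, Mycobacterium tuberculosis (UniProt P9WNZ1). Concentration: 30 µM. Higher reads as stronger inhibition, judged from the few compounds that gave an IC50. Most strong results did not repeat in a second test. Of about 67,000 compounds tested this way, about 40 (0.06%) reached 50% or more in at least one test.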

Results are given as percent effect.
The record does not define 0% and 100%; most values in the screen are far below 50% and negative numbers occur (in some assays of this library far below -100).
The compounds are a random part of those screened.
A dash means the value is not listed here; it may have been measured.

With Cc1ccc(NC(=O)CSCc2cccnc2)nc1 the screen gave Toxoplasma: 5.764%; Pks13 thioesterase: -33.28%; PfKRS1: 4.799%; CoaBC: 7.042%.
With CCC(C)N(C)CCNC(=O)NCc1cccc(-n2cncn2)c1 (stereo not shown) the screen gave Toxoplasma: 3.562%; Pks13 thioesterase: -25.82%; PfKRS1: 3.657%; CoaBC: 10.13%.
With CS(=O)(=O)NCC1CCCN(c2ccc(C#N)cn2)C1 (stereo not shown) the screen gave Toxoplasma: 1.479%; Pks13 thioesterase: -34.07%; PfKRS1: 2.704%; CoaBC: 4.545%.
With C=C(C)COc1ccccc1NC(=O)N1CCOCC(CO)C1 (stereo not shown) the screen gave Toxoplasma: -3.229%; Pks13 thioesterase: -5.984%; PfKRS1: -0.9689%; CoaBC: 6.373%.
With Cc1cnn(CC2CCCCN2CCn2cncn2)c1 (stereo not shown) the screen gave Toxoplasma: 2.451%; Pks13 thioesterase: -6.598%; PfKRS1: 2.117%; CoaBC: 3.259%.
With Cc1noc(CN2CC=C(c3c[nH]c4ncccc34)CC2)n1 the screen gave Toxoplasma: 19.98%; Pks13 thioesterase: 13.16%; PfKRS1: 1.373%; CoaBC: 8.439%.
With Cc1ccc(O[C@@H]2C[C@H]3CN(C(=O)c4cnccn4)CCN3C2)cc1 the screen gave Pks13 thioesterase: -29.82%; PfKRS1: 6.565%; CoaBC: 0.4894%.
With Cc1c(C(C)NC2CCOCC2)cnn1-c1ccc(F)cc1F (stereo not shown) the screen gave Toxoplasma: 1.451%; Pks13 thioesterase: 8.735%; PfKRS1: -8.655%; CoaBC: 6.048%.
With Cn1ccc2c(-c3ccc(NC4CC4)nn3)ccnc21 the screen gave Toxoplasma: -20.66%; Pks13 thioesterase: -0.8213%; PfKRS1: 4.577%; CoaBC: -2.016%.
With CS(=O)(=O)N(Cc1ccon1)c1ccc(F)cc1 the screen gave Toxoplasma: 1.441%; Pks13 thioesterase: -21.38%; PfKRS1: 2.506%; CoaBC: 1.029%.
With Cc1ncncc1-c1ccnc(NC(C)C)n1 the screen gave Toxoplasma: 20.8%; Pks13 thioesterase: 10.57%; PfKRS1: 3.677%; CoaBC: 4.217%.
With CSCCC(NC(=O)c1ccc2ccccc2n1)C(=O)NC1CC1 (stereo not shown) the screen gave Toxoplasma: -5.014%; Pks13 thioesterase: -25.93%; PfKRS1: 3.598%; CoaBC: -10.33%.
With CC(=O)N1CCCCC1c1cc(CO)[nH]n1 (stereo not shown) the screen gave Toxoplasma: -0.9609%; Pks13 thioesterase: -36.25%; PfKRS1: -2.733%; CoaBC: 0.8333%.
With CCOCC1c2c(ncn2C(C)C)CCN1C(C)C.O=C(O)C(F)(F)F.O=C(O)C(F)(F)F (stereo not shown) the screen gave Toxoplasma: -7.29%.
With [H][C@@]12CS(=O)(=O)C[C@]1([H])N(S(=O)(=O)N1CCCC1)CCN2CC the screen gave Toxoplasma: 3.425%.
With Cc1nn(C)c(C)c1CCn1cncc1-c1ccc2c(c1)CC(C)N2C (stereo not shown) the screen gave Pks13 thioesterase: 3.441%; PfKRS1: 1.79%; CoaBC: 14.84%.
With O=C(NCCCNc1ccc(C(F)(F)F)cn1)c1ccc(F)cc1F the screen gave Toxoplasma: 5.98%; Pks13 thioesterase: -0.3113%; PfKRS1: 0.5825%; CoaBC: 1.305%.
With CCC(=O)NCc1cc(C2CC2)n(C2CCCC2)n1 the screen gave Toxoplasma: 0.5148%; Pks13 thioesterase: -3.377%; PfKRS1: 1.777%; CoaBC: -5.285%.
With O=C(NCCO)Nc1ccc(Cl)cc1-n1cccc1 the screen gave Toxoplasma: 5.359%; Pks13 thioesterase: 1.668%; PfKRS1: 0.9955%; CoaBC: -20%.

Some entries from above, unchanged:

| structure | Toxoplasma | Pks13 thioesterase | PfKRS1 | CoaBC |
|---|---|---|---|---|
| `CS(=O)(=O)N(Cc1ccon1)c1ccc(F)cc1` | 1.441 | -21.38 | 2.506 | 1.029 |
| `CCOCC1c2c(ncn2C(C)C)CCN1C(C)C.O=C(O)C(F)(F)F.O=C(O)C(F)(F)F` (stereo not shown) | -7.29 | - | - | - |